# Results as given in PubChem BioAssay AID485353 (National Center for Advancing Translational Sciences (NCATS), 2010).
# Screen size: about 330,000 compounds; about 610 (0.18%) were called active. The inconclusive results got no clear call from the source; some entries with a clear call stand among them for comparison. Calls come from the whole dose curve. A potency beside an inconclusive call is a rough fit, not a confirmed value.
# Assay: qHTS of Yeast-based Assay for SARS-CoV PLP; note: nearly all actives have a fitted effect of over 55% in size
# Settings: S. cerevisiae expressing SARS-CoV PLpro; Potency: growth rescue; series mostly up to 32.9 µM
# Potency is the fitted concentration of half-maximal effect.
row,SMILES,Potency
1,COc1cc([N+](=O)[O-])cc(/C=N/NC(=O)C(C)Nc2cccc3ccccc23)c1O (centres undefined),active: 10 µM
2,Nn1cnnc1SCC(=O)Nc1ccc2c(c1)OCO2,inactive
3,CC(=O)n1cc([C@@H]2C=C(C(=O)N3CCN(Cc4ccccc4)CC3)O[C@H](OCc3ccc(CO)cc3)C2)c2ccccc21,inactive
4,COC(CNC(=O)c1ccc(Cn2c(=S)[nH]c3cc4c(cc3c2=O)OCO4)cc1)OC,"inconclusive: 4.47 µM [activator, full curve, poor fit]"
5,O=C(N/N=C/c1ccco1)c1ccc(NC(=O)C2CCCCC2)cc1,"inconclusive: 14.1 µM [activator, single point]"
6,O=C(c1cc(COc2c(F)cccc2F)on1)N1CCCCCC1,"inconclusive: 2.51 µM [activator, full curve, poor fit]"
7,c1ccc(-c2csc3ncnc(NCCCN4CCOCC4)c23)cc1,"inconclusive: 3.55 µM [activator, full curve]"
8,Cc1ccc(S(=O)(=O)N2CCN(Cc3cc(C(C)C)ccc3O)CC2)cc1,inactive
9,Cn1cccc1C(=O)C(=O)Nc1cc(Cl)cc(Cl)c1,inactive
10,O=C(NCCc1nnc2ccc(N3CCCCCC3)nn12)c1ccccc1,"inconclusive: 2.82 µM [activator, single point]"
11,CCc1nn(CC(=O)NCCc2ccc(OC)cc2OC)c(=O)c2cc3occc3n12,"inconclusive: 2.51 µM [activator, single point]"
12,Cc1cc(C)cc(OCCCn2ccnc2)c1,inactive
13,COc1ccc(Cl)cc1-c1nc(SCC(=O)NC2CCCC2)n[nH]1,inactive
14,Cc1nc(Nc2c(Cl)cccc2Cl)sc1C(=O)Nc1ccccc1,"inconclusive: 4.47 µM [activator, partial curve, poor fit]"
15,CCc1ccc(NC(=O)c2noc3c2CCC3)cc1,inactive
16,O=C(N/N=C/c1ccc2c(c1)OCO2)C(=O)Nc1cccc(Cl)c1,inactive
17,Cc1nn(C(=O)Cn2ccc([N+](=O)[O-])n2)c(C)c1Cl,inactive
18,COc1ccc(C(=O)NNC2CC(=O)N(Cc3ccc(Cl)cc3)C2=O)cc1OC (centres undefined),"inconclusive: 2.82 µM [activator, full curve, poor fit]"
19,COCCN(C(=S)Nc1ccc(OC)cc1)C(C)c1cccs1 (centres undefined),"inconclusive: 11.2 µM [activator, single point]"
20,Cc1cc2nc(-c3ccc[nH]c3=O)n(Cc3ccccc3F)c2cc1C,inactive
21,COc1ccccc1C(=O)N(C1=NC(C)CS1)c1ccc(Cl)cc1 (centres undefined),"inconclusive: 3.98 µM [activator, single point]"
22,O=C(O)Cc1sc(Nc2ccccc2)nc1-c1ccc(Cl)cc1,inactive
23,O=C(c1cc(-c2cccnc2)nc2ccccc12)N1CCN(S(=O)(=O)c2cccs2)CC1,inactive
24,CCCCCOC(=O)C1=C(C)NC(=O)NC1c1ccc2c(c1)OCO2 (centres undefined),"inconclusive: 11.2 µM [activator, partial curve]"
25,Cc1c(Cl)cccc1NC(=S)N1CCC(N(C)CC2CCCO2)CC1 (centres undefined),inactive

# Rewritten bar-delimited: entries from further up
row | SMILES | Potency
10 | O=C(NCCc1nnc2ccc(N3CCCCCC3)nn12)c1ccccc1 | inconclusive: 2.82 µM [activator, single point]
15 | CCc1ccc(NC(=O)c2noc3c2CCC3)cc1 | inactive
19 | COCCN(C(=S)Nc1ccc(OC)cc1)C(C)c1cccs1 (centres undefined) | inconclusive: 11.2 µM [activator, single point]
21 | COc1ccccc1C(=O)N(C1=NC(C)CS1)c1ccc(Cl)cc1 (centres undefined) | inconclusive: 3.98 µM [activator, single point]
22 | O=C(O)Cc1sc(Nc2ccccc2)nc1-c1ccc(Cl)cc1 | inactive

# Continuation.

row,SMILES,Potency
1,Cc1nn(-c2ccccc2)c(C)c1/C=N/n1cnnc1,inactive
2,COc1ccc(NC(=O)CCNC(=O)c2ccco2)cc1S(=O)(=O)N(C)C,inactive
3,CCC(=O)N1CCN(CCN=CC2=C(O)CC(c3ccc(OC)cc3)CC2=O)CC1 (centres undefined),"inconclusive: 4.47 µM [activator, partial curve]"
4,COc1ccc(N(CC2CO2)S(=O)(=O)c2ccccc2)cc1 (centres undefined),inactive
5,O=C(CCCCCNc1nc(=S)[nH]c2ccccc12)NCCc1ccc(Cl)cc1,inactive
6,O=C(NC(=S)NCc1ccccc1)c1ccc2c(c1)OCO2,"inconclusive: 11.2 µM [activator, partial curve]"
7,O=C(Nc1c2c(nn1-c1ccc([N+](=O)[O-])cc1)CS(=O)(=O)C2)c1ccco1,"inconclusive: 3.16 µM [activator, single point]"
8,COc1cc([N+](=O)[O-])ccc1NC(=S)Nn1cnnc1,"inconclusive: 3.98 µM [activator, single point]"
9,C/C(CC(=O)N1CCN(C=O)CC1)=N\NC(=O)c1cc2ccccc2cc1O,active: 14.1 µM
10,O=C(Cn1c(NCCO)nc2ccccc21)NCCc1ccc(F)cc1,"inconclusive: 20 µM [activator, single point]"
11,Cc1c(OC(C)C(=O)NCCCn2ccnc2)ccc2c3c(c(=O)oc12)CCC3 (centres undefined),inactive
12,CN(Cc1ccccc1)C(=O)c1ccc(Cl)c([N+](=O)[O-])c1,"inconclusive: 14.1 µM [activator, partial curve]"
13,COc1ccc(Cl)cc1NC(=S)NNC(=O)C1(C)CC1(Cl)Cl (centres undefined),inactive
14,CCn1nnnc1SCC(=O)c1ccc(C)cc1,inactive
15,CCOc1ccc(NC(=O)CCNC(=O)c2ccc(Br)cc2)cc1,"inconclusive: 20 µM [activator, single point]"
16,O=[N+]([O-])c1ccc(NC(=S)NCCc2ccc(Cl)cc2)cc1,inactive
17,CCCCNC(C(=O)Nc1ccc(Cl)c([N+](=O)[O-])c1)c1ccccc1 (centres undefined),inactive
18,CCC(=O)N1CCc2cc(S(=O)(=O)N3CCN(c4ccccc4Cl)CC3)ccc21,"inconclusive: 4.47 µM [activator, single point]"
19,c1ccc(-n2cnnc2SCc2cn3ccccc3n2)cc1,"inconclusive: 4.47 µM [activator, single point]"
20,CC(=O)N1CCN(CCN=CC2=C(O)CC(c3ccco3)CC2=O)CC1 (centres undefined),"inconclusive: 22.4 µM [activator, single point]"
21,O=C(NCCCN1CCN(c2ccc(F)cc2)CC1)c1cccc(N2CCCC2=O)c1,"inconclusive: 22.4 µM [activator, single point]"
22,Cc1cc(/C=C(\C#N)C(=O)NC2CCCCCC2)c(C)[nH]1,active: 12.6 µM
23,O=C(Nc1ccccc1Cl)c1cccc(COc2cc(Cl)ccc2Cl)c1,"inconclusive: 4.47 µM [activator, partial curve]"
24,NC(=O)C1CCN(C(=O)CN2CCCc3ccccc32)CC1,"inconclusive: 2.51 µM [activator, single point]"
25,CCCn1c(NC(=O)c2ccc([N+](=O)[O-])o2)nc2ccccc21,inactive

row,SMILES,Potency
1,COc1ccc(C(NC(C)=O)c2cc(Cl)c3cccnc3c2O)cc1 (centres undefined),active: 10 µM
2,O=C(COc1ccccc1)NC1CCCCCCC1,"inconclusive: 4.47 µM [activator, single point]"
3,COc1ccc(NCN2C(=O)CCC2=O)cc1,"inconclusive: 4.47 µM [activator, single point]"
4,CCC(C)c1ccc(NC(=O)Nc2cnccn2)cc1 (centres undefined),inactive
5,S=c1[nH]nc(COc2ccc(Cl)cc2)n1Cc1ccco1,"inconclusive: 11.2 µM [activator, partial curve]"
6,CC(=O)Nc1ccc(S(=O)(=O)Nc2cccc(-n3cnnn3)c2)cc1,"inconclusive: 2.51 µM [activator, single point]"
7,CCN(CC)CCNC(=O)CS(=O)Cc1nc(-c2ccc(C)cc2)oc1C (centres undefined),"inconclusive: 2 µM [activator, full curve]"
8,COc1ccccc1N1CCN(C(=O)CCCn2c(=O)[nH]c3ccsc3c2=O)CC1,inactive
9,COc1cc(Nc2cccc[n+]2C)cc(OC)c1OC,inactive
10,COc1ccc(CCNC(=O)CN(C)S(=O)(=O)c2ccc(OC)cc2)cc1,"inconclusive: 2.82 µM [activator, single point]"
11,Cc1cc(OCCCC(=O)NCc2cccs2)ccc1Cl,"inconclusive: 12.6 µM [activator, partial curve]"
12,COC(=O)C1=C(NC(C)=O)CCS1,"inconclusive: 17.8 µM [activator, partial curve, poor fit]"
13,CCCC(=O)N1c2ccccc2C(=C2SC(C(=O)OC)=C(C(=O)OC)S2)C(=S)C1(C)C,"inconclusive: 2.24 µM [activator, full curve]"
14,COc1cccc2cc(C(=O)NCc3ccc(F)cc3)c(=N)oc12,"inconclusive: 20 µM [activator, single point]"
15,CCCNC(=S)Nc1ccc(Cl)cc1C,"inconclusive: 11.2 µM [activator, single point]"
16,NS(=O)(=O)c1ccc(CNC(=O)c2cc(-c3cccnc3)nc3ccc(Br)cc23)cc1,"inconclusive: 20 µM [activator, single point]"
17,COc1ccc2c(c1)c(CC(=O)Nc1cccc(S(N)(=O)=O)c1)c(C)n2C(=O)c1ccc(Cl)cc1,inactive
18,Cn1c(NC(=S)Nc2ccccc2)nc2ccccc21,active: 8.91 µM
19,Cc1ccc(NN=Nc2nc3c([nH]2)c(=O)n(C)c(=O)n3C)cc1,"inconclusive: 22.4 µM [activator, single point]"
20,Cn1cc([N+](=O)[O-])c(C(=O)Nc2ccc3c(C(F)(F)F)cc(=O)oc3c2)n1,"inconclusive: 3.55 µM [activator, single point]"
21,COc1ccc(S(=O)(=O)N2CCOC2CNC(=O)C(=O)NCCc2ccccc2)cc1C (centres undefined),"inconclusive: 3.55 µM [activator, single point]"
22,Cc1ccc(S(=O)(=O)CCC(=O)OCC(=O)c2c(N)n(CC(C)C)c(=O)n(C)c2=O)cc1,"inconclusive: 20 µM [activator, single point]"
23,COc1ccc(-c2c(C#N)c(SCC(N)=O)nc3c2CCCC3)cc1,"inconclusive: 20 µM [activator, single point]"
24,O=C(c1ccc(NC2=NC3CS(=O)(=O)CC3S2)cc1)N(CCO)Cc1ccccc1 (centres undefined),"inconclusive: 17.8 µM [activator, single point]"
